Patent publication US20230236193A1, “[…] FOR S[…]” (VANDERBILT UNIVERSITY, priority 2020, published 2023)
Results are given in words; binding and its absence hold for the method and conditions named. Some entries that bind do so weakly or less than the wild type.

Amino acid sequences for entries named in this document (tags omitted). Residues count along the entry.
UniProt Q939N5, residues 399-601: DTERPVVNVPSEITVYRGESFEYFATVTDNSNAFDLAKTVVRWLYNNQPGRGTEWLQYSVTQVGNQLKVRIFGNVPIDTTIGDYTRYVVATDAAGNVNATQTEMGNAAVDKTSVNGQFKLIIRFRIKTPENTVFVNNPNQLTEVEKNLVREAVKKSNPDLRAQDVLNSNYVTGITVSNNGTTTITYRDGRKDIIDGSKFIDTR

Target: T1, C1-esterase inhibitor (100 kD) from human plasma (human) (UniProt P05155)
T1 sequence: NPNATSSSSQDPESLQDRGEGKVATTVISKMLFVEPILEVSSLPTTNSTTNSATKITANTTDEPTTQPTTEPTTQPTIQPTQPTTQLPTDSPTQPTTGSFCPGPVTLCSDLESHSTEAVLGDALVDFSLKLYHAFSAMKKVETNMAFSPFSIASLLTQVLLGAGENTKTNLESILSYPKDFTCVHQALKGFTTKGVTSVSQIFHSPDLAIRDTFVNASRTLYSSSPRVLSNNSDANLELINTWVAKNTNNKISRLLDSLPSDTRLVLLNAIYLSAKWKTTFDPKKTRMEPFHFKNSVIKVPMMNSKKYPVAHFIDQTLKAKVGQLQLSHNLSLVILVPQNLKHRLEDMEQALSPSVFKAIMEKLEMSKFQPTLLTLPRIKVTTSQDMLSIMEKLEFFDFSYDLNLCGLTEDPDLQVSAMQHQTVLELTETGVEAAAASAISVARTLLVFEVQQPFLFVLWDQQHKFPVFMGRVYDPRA
Test: far-western analysis of human plasma proteins

With “Siglec-like adhesin GspB from S. gordonii strain M99 (from UniProt Q939N5 399-601)” the binding was “binds”.
